# Data as given in PubChem BioAssay AID504808 (Drosophila RNAi Screening Center, 2011)
# Assay: 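Genes whose loss lifts activity of an E2F-responsive reporter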 (primary screen)
# Cell system: Drosophila S2 cells
# Reagents: long dsRNA against Drosophila genes
# Measurement: 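Firefly luciferase driven by E2F sites, normalised to Renilla luciferase on the same minimal promoter, measured by plate reader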
# Reading the numbers: E2F firefly: higher = more E2F reporter activity; Renilla normaliser: higher = more normaliser reporter signal
# Active means: 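a knock-down counted as active when the firefly/Renilla E2F signal rose above 50%, a threshold chosen arbitrarily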
# The screen tested about 21,000 reagents; this is a random part of those with a known target gene and a result. Over the whole deposit, 18 (0.084%) got an active call. 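Raw counts without plate normalisation, one of two replicates; the ratio scores behind the calls were not deposited.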 The numbers tell different reagents against one gene apart. Names joined by + are all predicted targets of the reagent. The record does not give: the amount of reagent, the time to read-out.
Gene,dsRNA no.,"E2F firefly, rep 1","Renilla normaliser, rep 1",Outcome
by (blistery),1,1.54e5,6635,inactive
Prx6a (Peroxiredoxin 6a),1,87331,3308,inactive
Cda4 (Chitin deacetylase-like 4),1,1.34e5,6096,inactive
Cda4 (Chitin deacetylase-like 4),2,1.31e5,5990,inactive
Cda4 (Chitin deacetylase-like 4),3,1.32e5,7022,inactive
CG3909,1,1.26e5,5267,inactive
CG31360,1,82850,3211,inactive
CG8248,1,2739,180,inactive
Egfrap (EGFR adaptor protein),1,86721,3878,inactive
Egfrap (EGFR adaptor protein),2,81031,3614,inactive
CG33099,1,65225,3168,inactive
cyp33 (cyclophilin-33),1,75763,3919,inactive
CG3342,1,7974,788,inactive
CG32436,1,1.23e5,5604,inactive
CG32436,2,1.32e5,6563,inactive
Eig71Eh,1,1.62e5,7552,inactive
CG32198,1,1.20e5,3763,inactive
RpS27A (Ribosomal protein S27A),1,1.26e5,6054,inactive
mxt (mextli),1,96593,3814,inactive
Vps13 (Vacuolar protein sorting 13),1,1.44e5,4521,inactive
RFeSP (Rieske iron-sulfur protein),1,1.62e5,6270,inactive
CG10910,1,1.39e5,5738,inactive
"Pka-R2 (Protein kinase, cAMP-dependent, regulatory subunit type 2)",1,1.55e5,5110,inactive
CG12384,1,177,44,inactive
primo-2 + primo-1,1,1.19e5,7217,inactive
Elal (Elastin-like),1,73367,5003,inactive
CG14950 (retired record),1,1.01e5,4148,inactive
Snx3 (Sorting nexin 3),1,1.49e5,6666,inactive
Gycalpha99B (Guanylyl cyclase alpha-subunit at 99B),1,1840,864,inactive
CG13465,1,1.47e5,7200,inactive
CG10973,1,73192,3888,inactive
CG31886,1,85832,4488,inactive
ato (atonal),1,1.11e5,4595,inactive
CG8635,1,2848,219,inactive
Oct-TyrR (Octopamine-Tyramine receptor),1,1.24e5,7111,inactive
CG5539,1,99233,4079,inactive
Kdm3 (Lysine demethylase 3),1,1.86e5,6574,inactive
dpr20 (defective proboscis extension response 20),1,78448,3811,inactive
CG7168,1,73033,3687,inactive
CG3251,1,1.73e5,6262,inactive
CG3703,1,1.32e5,6249,inactive
CG3703,2,1.25e5,6673,inactive
CG3703,3,1.32e5,5850,inactive
Rif1 (Rap1 interacting factor 1),1,1.01e5,4994,inactive
CG1640,1,8916,728,inactive
ver (verrocchio),1,1.27e5,7205,inactive
Tsp42Ej (Tetraspanin 42Ej),1,81119,3670,inactive
CG33191 + Pif1B,1,63960,3935,inactive
CG13220,1,90265,4335,inactive
CG7530,1,64519,2850,inactive
Mes2 (Mesoderm-expressed 2),1,91399,4154,inactive
Mes2 (Mesoderm-expressed 2),2,63724,3737,inactive
CG17597,1,77349,3187,inactive
Socs16D (Suppressor of Cytokine Signaling at 16D),1,1.98e5,6558,inactive
GstE8 (Glutathione S transferase E8),1,79184,3516,inactive
MstProx + Mst84Da,1,1.45e5,7030,inactive
scramb2 (scramblase 2),1,93898,3925,inactive
beat-IIIc (beaten path IIIc),1,1.17e5,4384,inactive
beat-IIIc (beaten path IIIc),2,1.08e5,4451,inactive
CG44838,1,59290,3098,inactive
CG44838,2,75030,4180,inactive
CG32075,1,82271,3803,inactive
Tsp5D (Tetraspanin 5D),1,1.14e5,6059,inactive
CG16799,1,96800,4240,inactive
CG33775,1,1.45e5,5340,inactive
HLH54F,1,1.49e5,5660,inactive
CG13659,1,1.23e5,6366,inactive
CG34355,1,81176,2610,inactive
CG34355,2,1.14e5,5502,inactive
CG34355,3,1.11e5,6272,inactive
TfAP-2 (Transcription factor AP-2),1,1.18e5,5753,inactive
CG12054,1,1167,860,inactive
EndoB (Endophilin B),1,1.43e5,4898,inactive
Chd64,1,69745,4321,inactive
Acp1 (Adult cuticle protein 1),1,1.50e5,4902,inactive
CG34310,1,1.45e5,5899,inactive
CG18649,1,1.41e5,7217,inactive
CG12826,1,1.59e5,5572,inactive
CG2224,1,1.30e5,6972,inactive
Hs3st-A (Heparan sulfate 3-O sulfotransferase-A),1,55504,3299,inactive
Hs3st-A (Heparan sulfate 3-O sulfotransferase-A),2,1.63e5,6051,inactive
Hs3st-A (Heparan sulfate 3-O sulfotransferase-A),3,1.55e5,5158,inactive
CG10710,1,1.27e5,7368,inactive
Ugt37C2 (UDP-glycosyltransferase family 37 member C2),1,1.01e5,4381,inactive
mas (masquerade),1,54187,3055,inactive
RagA-B (Ras-related GTP binding A/B),1,85466,3576,inactive
Gasz,1,3815,127,inactive
CG13685,1,94464,3767,inactive
CG31337,1,81702,2891,inactive
wmd (wing morphogenesis defect),1,92608,3477,inactive
Cpr73D (Cuticular protein 73D),1,88904,3980,inactive
beta4GalT7 (beta-4-galactosyltransferase 7),1,1.11e5,6110,inactive
CG8478,1,1.31e5,5506,inactive
PH4alphaSG2 (prolyl-4-hydroxylase-alpha SG2),1,1.18e5,6170,inactive
Klp67A (Kinesin-like protein at 67A),1,1.36e5,6094,inactive
Pbp95 (PSEA-binding protein 95kD),1,1.39e5,7036,inactive
CG11370,1,1.27e5,8518,inactive
CheB53a (Chemosensory protein B 53a),1,1.40e5,5345,inactive
Pbp45 (PSEA-binding protein 45kD),1,1.19e5,6754,inactive
CG32582 (retired record),1,83140,2850,inactive
tral (trailer hitch),1,46751,163,inactive
mol (moladietz),1,1.18e5,3439,inactive
mol (moladietz),2,93701,3251,inactive
mol (moladietz),3,1.11e5,3931,inactive
shv (shriveled),1,1.72e5,6188,inactive
Atg101 (Autophagy-related 101),1,1.35e5,8452,inactive
CG42500,1,91667,6103,inactive

Reformatted: results already given.
CG12826 → E2F firefly, rep 1: 1.59e5; Renilla normaliser, rep 1: 5572; Outcome: inactive
CG2224 → E2F firefly, rep 1: 1.30e5; Renilla normaliser, rep 1: 6972; Outcome: inactive
Hs3st-A (Heparan sulfate 3-O sulfotransferase-A) #1 → E2F firefly, rep 1: 55504; Renilla normaliser, rep 1: 3299; Outcome: inactive
Hs3st-A (Heparan sulfate 3-O sulfotransferase-A) #2 → E2F firefly, rep 1: 1.63e5; Renilla normaliser, rep 1: 6051; Outcome: inactive
Hs3st-A (Heparan sulfate 3-O sulfotransferase-A) #3 → E2F firefly, rep 1: 1.55e5; Renilla normaliser, rep 1: 5158; Outcome: inactive
CG10710 → E2F firefly, rep 1: 1.27e5; Renilla normaliser, rep 1: 7368; Outcome: inactive
